Data reported in publication PMC8406275.

Sequences of proteins named here, by UniProt entry; tags and fusion partners are left off. A change or cut given only in a name is not applied to a line headed by its entry.
UniProt A5YKK6: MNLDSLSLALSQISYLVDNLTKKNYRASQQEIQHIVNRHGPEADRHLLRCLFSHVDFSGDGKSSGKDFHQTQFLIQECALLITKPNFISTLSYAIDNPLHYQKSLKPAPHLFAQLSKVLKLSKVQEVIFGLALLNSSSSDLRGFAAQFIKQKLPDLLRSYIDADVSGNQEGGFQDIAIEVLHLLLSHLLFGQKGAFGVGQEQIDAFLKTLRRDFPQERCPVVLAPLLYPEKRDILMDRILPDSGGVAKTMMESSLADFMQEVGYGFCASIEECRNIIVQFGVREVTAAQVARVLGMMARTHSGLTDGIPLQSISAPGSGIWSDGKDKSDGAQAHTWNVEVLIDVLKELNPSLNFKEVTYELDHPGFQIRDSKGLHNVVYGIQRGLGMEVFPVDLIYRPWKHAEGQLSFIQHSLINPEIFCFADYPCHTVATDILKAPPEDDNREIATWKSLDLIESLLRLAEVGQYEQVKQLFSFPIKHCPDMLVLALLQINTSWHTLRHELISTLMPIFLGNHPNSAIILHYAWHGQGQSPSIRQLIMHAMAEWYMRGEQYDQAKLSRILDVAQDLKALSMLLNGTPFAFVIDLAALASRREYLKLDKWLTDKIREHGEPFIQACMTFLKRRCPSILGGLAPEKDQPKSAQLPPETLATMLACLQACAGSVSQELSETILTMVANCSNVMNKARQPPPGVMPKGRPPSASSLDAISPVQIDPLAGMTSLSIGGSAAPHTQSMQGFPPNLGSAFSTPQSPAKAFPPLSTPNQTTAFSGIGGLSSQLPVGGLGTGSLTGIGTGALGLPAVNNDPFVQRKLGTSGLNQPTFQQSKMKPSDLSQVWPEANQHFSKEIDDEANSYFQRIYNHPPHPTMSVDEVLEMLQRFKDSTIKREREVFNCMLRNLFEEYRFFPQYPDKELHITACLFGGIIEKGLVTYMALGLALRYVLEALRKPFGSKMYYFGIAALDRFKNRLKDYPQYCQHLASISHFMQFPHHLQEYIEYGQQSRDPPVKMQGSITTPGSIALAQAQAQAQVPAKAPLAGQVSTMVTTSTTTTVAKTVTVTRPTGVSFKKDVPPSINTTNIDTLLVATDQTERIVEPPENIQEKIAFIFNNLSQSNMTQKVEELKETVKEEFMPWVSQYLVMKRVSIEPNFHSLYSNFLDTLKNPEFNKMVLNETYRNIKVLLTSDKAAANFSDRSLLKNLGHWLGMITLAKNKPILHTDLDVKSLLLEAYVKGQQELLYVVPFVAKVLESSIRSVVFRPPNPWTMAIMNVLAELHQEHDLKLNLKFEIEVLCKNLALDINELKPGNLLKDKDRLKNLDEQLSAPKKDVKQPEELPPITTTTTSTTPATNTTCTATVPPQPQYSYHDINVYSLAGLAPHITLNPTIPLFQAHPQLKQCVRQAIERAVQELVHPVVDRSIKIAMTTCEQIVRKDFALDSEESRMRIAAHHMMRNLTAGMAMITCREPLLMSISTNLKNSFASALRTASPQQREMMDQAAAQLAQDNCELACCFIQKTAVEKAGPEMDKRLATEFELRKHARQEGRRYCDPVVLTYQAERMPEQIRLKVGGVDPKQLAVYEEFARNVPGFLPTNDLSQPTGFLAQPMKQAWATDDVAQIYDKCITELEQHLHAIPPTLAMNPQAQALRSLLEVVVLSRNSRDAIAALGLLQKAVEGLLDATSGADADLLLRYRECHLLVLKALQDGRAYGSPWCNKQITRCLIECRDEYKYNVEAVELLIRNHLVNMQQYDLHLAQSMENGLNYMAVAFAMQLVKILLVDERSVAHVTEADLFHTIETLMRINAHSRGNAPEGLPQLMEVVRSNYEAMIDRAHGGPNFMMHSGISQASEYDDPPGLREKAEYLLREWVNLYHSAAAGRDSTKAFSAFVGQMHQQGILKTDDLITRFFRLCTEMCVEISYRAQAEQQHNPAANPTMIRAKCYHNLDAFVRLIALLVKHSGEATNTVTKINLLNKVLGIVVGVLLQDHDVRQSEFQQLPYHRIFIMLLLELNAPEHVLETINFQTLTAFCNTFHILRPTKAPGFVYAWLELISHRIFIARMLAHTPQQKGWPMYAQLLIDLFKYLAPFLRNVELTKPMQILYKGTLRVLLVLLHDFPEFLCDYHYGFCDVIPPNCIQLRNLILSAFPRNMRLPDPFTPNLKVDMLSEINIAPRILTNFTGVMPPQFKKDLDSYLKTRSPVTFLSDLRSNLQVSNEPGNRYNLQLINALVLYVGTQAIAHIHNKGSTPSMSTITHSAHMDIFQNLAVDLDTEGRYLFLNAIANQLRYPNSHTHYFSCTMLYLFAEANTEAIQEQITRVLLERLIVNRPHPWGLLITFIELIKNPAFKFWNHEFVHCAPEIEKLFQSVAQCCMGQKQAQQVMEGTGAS

How the values were obtained:
Assay in all cases: co-IP; Halo-V5-tagged WT or truncated YTHDF2 cotransfected with HA-tagged CNOT1 SH domain into 293T cells; lysed 48 h posttransfection in RIPA lysis buffer (50 mM Tris-HCl, 150 mM NaCl, 1% NP-40, 1% deoxycholate, 0.1% SDS, 1 mM EDTA); IP with anti-V5 antibody-conjugated magnetic beads; Western blot
[1] = molecular target: Halo-V5-tagged WT YTHDF2 (human) (UniProt Q9Y5A9)
[2] = molecular target: T1, Halo-V5-tagged YTHDF2 fragment F4 (aa 167 to 579) (human) (UniProt Q9Y5A9)
T1 sequence: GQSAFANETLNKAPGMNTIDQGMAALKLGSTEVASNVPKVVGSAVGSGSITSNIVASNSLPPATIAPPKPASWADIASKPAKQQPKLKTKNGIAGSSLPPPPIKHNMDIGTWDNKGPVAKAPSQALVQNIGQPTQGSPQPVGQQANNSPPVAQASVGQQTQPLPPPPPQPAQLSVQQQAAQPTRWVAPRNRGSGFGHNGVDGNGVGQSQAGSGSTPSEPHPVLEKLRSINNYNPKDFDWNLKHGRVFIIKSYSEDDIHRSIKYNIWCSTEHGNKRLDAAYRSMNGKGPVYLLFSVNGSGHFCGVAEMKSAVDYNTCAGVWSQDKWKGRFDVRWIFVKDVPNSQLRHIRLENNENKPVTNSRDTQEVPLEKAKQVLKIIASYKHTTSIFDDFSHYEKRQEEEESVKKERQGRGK

[3] = molecular target: T2, Halo-V5-tagged YTHDF2 fragment F2 (aa 1 to 367) (human) (UniProt Q9Y5A9)
T2 sequence: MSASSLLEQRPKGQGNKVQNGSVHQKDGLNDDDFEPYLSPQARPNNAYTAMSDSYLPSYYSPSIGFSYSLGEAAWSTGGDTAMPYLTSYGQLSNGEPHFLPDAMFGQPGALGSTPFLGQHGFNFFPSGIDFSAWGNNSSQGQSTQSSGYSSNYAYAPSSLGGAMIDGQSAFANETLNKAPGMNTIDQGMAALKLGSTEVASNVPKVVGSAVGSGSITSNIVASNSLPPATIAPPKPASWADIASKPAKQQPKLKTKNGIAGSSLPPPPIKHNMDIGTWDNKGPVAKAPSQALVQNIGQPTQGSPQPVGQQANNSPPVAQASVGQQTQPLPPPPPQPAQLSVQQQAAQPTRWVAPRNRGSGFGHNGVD

[4] = molecular target: T3, Halo-V5-tagged YTHDF2 fragment F5 (aa 368 to 579) (human) (UniProt Q9Y5A9)
T3 sequence: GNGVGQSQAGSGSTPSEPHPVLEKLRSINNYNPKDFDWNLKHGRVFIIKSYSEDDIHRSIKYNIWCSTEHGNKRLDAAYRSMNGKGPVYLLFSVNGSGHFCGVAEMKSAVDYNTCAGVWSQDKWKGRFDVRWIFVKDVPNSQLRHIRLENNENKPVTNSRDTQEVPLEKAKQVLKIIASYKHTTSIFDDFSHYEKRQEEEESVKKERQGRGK

[5] = molecular target: T4, Halo-V5-tagged YTHDF2 fragment F1 (aa 1 to 166) (human) (UniProt Q9Y5A9)
T4 sequence: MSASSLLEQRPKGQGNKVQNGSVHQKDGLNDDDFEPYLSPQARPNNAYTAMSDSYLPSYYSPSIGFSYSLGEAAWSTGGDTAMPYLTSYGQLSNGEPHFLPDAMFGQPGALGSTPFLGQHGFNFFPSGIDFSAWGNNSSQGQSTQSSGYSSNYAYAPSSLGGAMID

[6] = molecular target: T5, Halo-V5-tagged YTHDF2 fragment F3 (aa 167 to 367) (human) (UniProt Q9Y5A9)
T5 sequence: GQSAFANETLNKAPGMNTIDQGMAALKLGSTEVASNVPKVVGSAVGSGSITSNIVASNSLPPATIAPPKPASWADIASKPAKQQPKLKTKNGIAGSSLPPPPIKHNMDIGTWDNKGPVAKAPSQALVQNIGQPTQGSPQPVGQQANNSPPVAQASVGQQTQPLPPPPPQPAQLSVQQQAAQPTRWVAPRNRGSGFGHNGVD

binding [1]: binds | binding [2]: binds | binding [3]: binds | binding [4]: binds | binding [5]: no binding | binding [6]: no binding
Substance: HA-tagged CNOT1 SH domain (from UniProt A5YKK6) (domain or fragment)

These are yes or no findings as the source states them, for the method shown. Binding seen in cells or lysates may run through a third protein. For part of these data: Binding can be weak; no strength is given. For part of these data: Sequences can lack the tags named with a protein.
